Experimental data published in the supplement of paper PMC10849652.
The list shows a part of the results.

Chains of the proteins cited; added tags and fusions are not shown. Lines headed by an entry give the natural chain unless they say otherwise; changes in a name come on top.
UniProt Q96LJ7: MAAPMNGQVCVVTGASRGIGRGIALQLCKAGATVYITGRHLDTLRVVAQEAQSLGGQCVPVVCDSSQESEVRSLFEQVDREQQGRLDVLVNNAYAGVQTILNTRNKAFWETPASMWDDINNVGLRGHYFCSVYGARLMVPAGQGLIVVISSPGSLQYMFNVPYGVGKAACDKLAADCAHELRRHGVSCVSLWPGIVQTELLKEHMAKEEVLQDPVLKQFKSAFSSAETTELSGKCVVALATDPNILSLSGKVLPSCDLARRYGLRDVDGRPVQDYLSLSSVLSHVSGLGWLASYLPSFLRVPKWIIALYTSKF
UniProt Q9Y315: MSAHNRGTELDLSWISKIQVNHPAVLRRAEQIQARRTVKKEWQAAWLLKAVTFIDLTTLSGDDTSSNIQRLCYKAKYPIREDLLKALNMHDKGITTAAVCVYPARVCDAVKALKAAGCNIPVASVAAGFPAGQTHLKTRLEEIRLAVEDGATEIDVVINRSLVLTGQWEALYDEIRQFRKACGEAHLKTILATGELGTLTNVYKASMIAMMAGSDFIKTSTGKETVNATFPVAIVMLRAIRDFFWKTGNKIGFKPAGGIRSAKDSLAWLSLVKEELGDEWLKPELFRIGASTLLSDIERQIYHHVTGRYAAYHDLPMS
UniProt Q7Z401: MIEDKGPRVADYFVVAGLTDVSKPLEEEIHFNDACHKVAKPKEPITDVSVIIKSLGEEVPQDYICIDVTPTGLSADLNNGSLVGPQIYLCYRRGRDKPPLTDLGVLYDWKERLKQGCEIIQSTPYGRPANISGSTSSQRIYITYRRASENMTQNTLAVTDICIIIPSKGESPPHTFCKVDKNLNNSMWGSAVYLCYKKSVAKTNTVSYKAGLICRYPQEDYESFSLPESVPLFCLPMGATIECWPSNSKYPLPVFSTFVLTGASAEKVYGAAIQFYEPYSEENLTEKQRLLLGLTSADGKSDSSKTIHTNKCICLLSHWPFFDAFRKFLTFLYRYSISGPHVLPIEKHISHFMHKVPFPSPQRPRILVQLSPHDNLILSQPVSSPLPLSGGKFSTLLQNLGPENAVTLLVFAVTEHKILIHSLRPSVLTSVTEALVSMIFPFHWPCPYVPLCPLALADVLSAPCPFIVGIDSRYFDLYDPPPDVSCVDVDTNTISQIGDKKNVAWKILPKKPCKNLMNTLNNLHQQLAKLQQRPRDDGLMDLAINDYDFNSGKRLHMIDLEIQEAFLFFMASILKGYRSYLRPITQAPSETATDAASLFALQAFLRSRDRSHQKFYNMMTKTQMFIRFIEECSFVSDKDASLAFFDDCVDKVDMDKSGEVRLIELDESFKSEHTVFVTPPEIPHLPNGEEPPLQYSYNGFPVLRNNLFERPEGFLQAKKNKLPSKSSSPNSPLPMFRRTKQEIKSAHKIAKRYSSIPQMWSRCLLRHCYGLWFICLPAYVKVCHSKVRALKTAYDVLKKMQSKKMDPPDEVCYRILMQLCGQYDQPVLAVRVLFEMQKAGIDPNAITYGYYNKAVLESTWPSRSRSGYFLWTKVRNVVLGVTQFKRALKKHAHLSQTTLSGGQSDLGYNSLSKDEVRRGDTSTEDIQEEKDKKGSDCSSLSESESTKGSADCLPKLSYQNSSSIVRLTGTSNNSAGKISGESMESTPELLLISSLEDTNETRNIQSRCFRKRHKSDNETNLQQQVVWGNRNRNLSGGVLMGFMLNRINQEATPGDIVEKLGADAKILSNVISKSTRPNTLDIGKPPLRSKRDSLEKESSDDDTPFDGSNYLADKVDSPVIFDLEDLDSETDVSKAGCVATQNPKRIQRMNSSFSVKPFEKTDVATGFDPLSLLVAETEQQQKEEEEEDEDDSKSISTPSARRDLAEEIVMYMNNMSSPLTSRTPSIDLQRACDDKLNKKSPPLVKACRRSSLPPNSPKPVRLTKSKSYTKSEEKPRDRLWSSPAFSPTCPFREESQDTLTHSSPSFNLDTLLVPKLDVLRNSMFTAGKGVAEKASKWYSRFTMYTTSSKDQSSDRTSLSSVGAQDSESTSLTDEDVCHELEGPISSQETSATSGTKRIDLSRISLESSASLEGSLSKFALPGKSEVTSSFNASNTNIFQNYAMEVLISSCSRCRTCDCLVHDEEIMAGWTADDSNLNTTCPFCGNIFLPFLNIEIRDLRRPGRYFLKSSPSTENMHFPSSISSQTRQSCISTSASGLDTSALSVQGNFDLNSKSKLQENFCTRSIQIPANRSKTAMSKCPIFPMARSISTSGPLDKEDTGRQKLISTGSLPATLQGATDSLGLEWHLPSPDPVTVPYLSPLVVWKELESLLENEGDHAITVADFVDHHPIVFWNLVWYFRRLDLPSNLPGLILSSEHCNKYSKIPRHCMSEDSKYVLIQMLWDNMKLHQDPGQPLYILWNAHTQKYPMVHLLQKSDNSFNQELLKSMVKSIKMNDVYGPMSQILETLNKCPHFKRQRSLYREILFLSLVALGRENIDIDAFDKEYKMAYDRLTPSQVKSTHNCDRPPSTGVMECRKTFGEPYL
UniProt Q92499: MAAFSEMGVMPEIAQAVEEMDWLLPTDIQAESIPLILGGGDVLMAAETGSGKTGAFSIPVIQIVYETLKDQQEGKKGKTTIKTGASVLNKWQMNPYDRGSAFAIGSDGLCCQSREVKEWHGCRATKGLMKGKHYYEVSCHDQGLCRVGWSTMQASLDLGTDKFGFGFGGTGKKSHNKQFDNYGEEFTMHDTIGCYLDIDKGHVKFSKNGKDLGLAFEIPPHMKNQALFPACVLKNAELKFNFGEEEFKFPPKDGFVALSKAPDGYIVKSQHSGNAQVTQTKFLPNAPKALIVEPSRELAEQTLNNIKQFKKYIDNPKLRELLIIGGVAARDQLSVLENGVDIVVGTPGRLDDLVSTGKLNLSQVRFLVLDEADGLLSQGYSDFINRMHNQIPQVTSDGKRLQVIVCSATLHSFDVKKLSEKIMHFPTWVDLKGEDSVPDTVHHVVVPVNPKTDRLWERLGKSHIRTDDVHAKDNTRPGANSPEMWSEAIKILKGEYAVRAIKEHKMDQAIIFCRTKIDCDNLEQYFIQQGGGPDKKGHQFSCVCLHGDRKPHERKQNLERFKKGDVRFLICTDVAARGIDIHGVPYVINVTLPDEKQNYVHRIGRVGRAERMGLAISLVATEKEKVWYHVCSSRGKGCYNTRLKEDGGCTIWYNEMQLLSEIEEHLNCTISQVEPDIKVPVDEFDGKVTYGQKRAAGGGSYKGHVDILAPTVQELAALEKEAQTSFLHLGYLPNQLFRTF
UniProt Q15392: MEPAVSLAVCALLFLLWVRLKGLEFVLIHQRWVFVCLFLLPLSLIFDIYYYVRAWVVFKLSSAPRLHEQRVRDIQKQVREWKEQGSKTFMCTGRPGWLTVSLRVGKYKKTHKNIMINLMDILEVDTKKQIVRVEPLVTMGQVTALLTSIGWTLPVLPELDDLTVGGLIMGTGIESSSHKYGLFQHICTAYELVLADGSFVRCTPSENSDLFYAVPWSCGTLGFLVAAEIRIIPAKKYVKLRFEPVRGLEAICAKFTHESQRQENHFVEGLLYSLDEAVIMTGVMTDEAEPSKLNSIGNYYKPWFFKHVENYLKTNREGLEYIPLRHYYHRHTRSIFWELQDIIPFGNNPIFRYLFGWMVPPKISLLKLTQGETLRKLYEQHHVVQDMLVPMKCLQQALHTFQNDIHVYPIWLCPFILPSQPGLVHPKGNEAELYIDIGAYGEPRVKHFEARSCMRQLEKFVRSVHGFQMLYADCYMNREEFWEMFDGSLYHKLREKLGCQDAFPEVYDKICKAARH
UniProt O75064: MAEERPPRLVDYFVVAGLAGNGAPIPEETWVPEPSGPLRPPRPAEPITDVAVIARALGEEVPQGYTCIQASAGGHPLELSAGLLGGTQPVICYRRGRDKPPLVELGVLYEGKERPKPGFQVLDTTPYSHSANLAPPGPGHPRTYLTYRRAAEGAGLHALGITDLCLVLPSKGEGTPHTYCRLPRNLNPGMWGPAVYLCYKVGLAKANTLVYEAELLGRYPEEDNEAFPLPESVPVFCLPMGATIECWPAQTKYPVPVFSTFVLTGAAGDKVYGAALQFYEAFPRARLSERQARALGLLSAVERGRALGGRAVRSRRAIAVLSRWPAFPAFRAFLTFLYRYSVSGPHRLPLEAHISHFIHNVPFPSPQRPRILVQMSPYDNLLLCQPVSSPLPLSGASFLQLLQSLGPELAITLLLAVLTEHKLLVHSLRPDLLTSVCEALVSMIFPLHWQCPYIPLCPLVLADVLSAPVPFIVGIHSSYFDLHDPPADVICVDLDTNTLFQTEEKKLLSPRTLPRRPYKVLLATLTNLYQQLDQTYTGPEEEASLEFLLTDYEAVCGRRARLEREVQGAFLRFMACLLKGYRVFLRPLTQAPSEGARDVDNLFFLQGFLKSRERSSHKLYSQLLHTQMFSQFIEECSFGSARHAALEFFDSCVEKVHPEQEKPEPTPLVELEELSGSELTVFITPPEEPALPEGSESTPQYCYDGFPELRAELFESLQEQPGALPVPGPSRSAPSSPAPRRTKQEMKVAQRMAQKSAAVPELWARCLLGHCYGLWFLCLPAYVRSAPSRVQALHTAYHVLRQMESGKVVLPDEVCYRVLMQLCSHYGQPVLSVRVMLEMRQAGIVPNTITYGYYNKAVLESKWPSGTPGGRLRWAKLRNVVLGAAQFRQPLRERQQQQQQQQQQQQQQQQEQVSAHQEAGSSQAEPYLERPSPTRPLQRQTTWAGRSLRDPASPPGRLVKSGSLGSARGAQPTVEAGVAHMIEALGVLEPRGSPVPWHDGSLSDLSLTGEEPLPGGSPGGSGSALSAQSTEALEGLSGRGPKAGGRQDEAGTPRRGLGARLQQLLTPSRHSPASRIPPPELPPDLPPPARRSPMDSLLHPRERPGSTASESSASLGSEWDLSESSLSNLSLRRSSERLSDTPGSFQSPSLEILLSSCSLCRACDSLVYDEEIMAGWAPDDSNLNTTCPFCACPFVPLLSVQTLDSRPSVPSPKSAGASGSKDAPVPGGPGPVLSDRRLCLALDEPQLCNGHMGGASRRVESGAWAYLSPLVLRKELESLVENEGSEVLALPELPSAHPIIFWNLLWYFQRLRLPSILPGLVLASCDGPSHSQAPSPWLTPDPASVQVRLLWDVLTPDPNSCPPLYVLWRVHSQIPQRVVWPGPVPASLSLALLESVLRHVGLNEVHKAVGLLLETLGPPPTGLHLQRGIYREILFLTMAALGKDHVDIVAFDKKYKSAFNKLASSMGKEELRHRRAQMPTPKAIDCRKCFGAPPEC
UniProt Q9GZR7: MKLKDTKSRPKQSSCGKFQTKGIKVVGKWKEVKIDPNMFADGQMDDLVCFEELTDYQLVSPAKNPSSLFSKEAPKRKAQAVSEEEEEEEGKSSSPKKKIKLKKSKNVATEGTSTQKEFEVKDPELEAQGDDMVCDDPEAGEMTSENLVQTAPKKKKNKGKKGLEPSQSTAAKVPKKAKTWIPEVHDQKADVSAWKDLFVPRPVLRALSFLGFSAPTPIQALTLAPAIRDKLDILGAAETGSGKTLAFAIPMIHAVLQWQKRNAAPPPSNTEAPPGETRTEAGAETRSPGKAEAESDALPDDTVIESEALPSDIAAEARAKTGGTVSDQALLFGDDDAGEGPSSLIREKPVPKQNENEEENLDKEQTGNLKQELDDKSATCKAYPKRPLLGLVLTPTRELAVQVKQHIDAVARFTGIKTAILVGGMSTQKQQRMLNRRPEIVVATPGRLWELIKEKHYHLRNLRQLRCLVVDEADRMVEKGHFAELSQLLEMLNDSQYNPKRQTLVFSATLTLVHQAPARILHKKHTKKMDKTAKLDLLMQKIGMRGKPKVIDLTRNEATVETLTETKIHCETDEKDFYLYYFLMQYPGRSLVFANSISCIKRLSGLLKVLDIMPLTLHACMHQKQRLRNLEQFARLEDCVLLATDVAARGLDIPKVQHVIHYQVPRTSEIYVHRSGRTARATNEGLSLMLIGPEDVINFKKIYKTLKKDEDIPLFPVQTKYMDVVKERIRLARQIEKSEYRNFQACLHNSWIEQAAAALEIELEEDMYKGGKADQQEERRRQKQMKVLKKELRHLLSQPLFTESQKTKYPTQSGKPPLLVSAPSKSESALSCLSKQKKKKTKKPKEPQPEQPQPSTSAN

Legend:
Assay in all cases: log2 fold change, soluble protein after heating vs DMSO (PISA); higher = thermal stabilisation; K562 cells, 10 uM, 30 min; active = over 0.2 and 3.5 SD of the protein, either way, in both replicates (recomputed)
[1] = compound: C1=CC=C(C=C1)[C@H](COC2=CC3=C(C=C2)NC(=O)N3)NC(=O)C4=CC=CN(C4=O)CC5=CC(=C(C=C5)F)F
In short: (§1)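 K562 cells (2×10^6 cells/mL) were treated with 10 μM compound for 30 min, and aliquots were heated for 3 min over 48°C-58°C. Pooled aliquots were extracted in PBS with 0.5% NP-40 at 4°C, and the supernatant after 21,000xg for 90 min was measured by TMTpro 16plex LC-MS/MS with channel sums equalised. Reported thermal stability, relative to control samples and from duplicates, is a log2 fold change.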

[2] = compound: CC1=C(SC2=C1C(=N[C@H](C3=NN=C(N32)C)CC(=O)N)C4=CC=C(C=C4)Cl)C
In short: as §1

[3] = compound: CC1=C2C(=CC=C1)N=C(N(C2=O)C3=CC=CC=C3C)CN4C=NC5=C(N=CN=C54)N
In short: as §1

[4] = compound: Cc1sc2c(c1C)C(c1ccc(Cl)cc1)=N[C@@H](CC(=O)OC(C)(C)C)c1nnc(C)n1-2
In short: as §1

[5] = compound: c1ccc([C@@H]2C[C@H]2NC2CCNCC2)cc1
In short: as §1

Measured: log2 fold change

DHRS1 (UniProt Q96LJ7)
inactive: [1] 0.241 | [2] 0.015 | [3] 0.216 | [4] 0.321 | [5] 0.013

DERA (UniProt Q9Y315)
inactive: [1] 0.048 | [2] -0.013 | [3] 0.039 | [4] 0.016 | [5] 0.001

DHX36 (UniProt Q9H2U1)
inactive: [1] 0.037 | [2] -0.087 | [3] -0.094 | [4] 0.091 | [5] 0.015

DENND4A isoform 2 (UniProt Q7Z401)
inactive: [1] -0.206 | [2] 0.042 | [3] 0.061 | [4] 0.148 | [5] 0.019

DDX1 (UniProt Q92499)
inactive: [1] 0.012 | [2] -0.035 | [3] -0.026 | [4] 0.124 | [5] -0.044

DHCR24 (UniProt Q15392)
inactive: [1] 0.099 | [2] -0.035 | [3] 0.14 | [4] 0.036 | [5] -0.012

DENND4B (UniProt O75064)
inactive: [1] -0.002 | [2] -0.04 | [3] 0.032 | [4] 0.087 | [5] -0.011

DENND1C (UniProt Q8IV53)
inactive: [3] 0.262

2 successive entries already listed, for reference:
DENND4A isoform 2 (UniProt Q7Z401)
inactive: [1] -0.206 | [2] 0.042 | [3] 0.061 | [4] 0.148 | [5] 0.019

DDX1 (UniProt Q92499)
inactive: [1] 0.012 | [2] -0.035 | [3] -0.026 | [4] 0.124 | [5] -0.044

(continued)

DIDO1 (UniProt Q9BTC0)
inactive: [2] -0.038 | [4] -0.024 | [5] 0.038

DDX24 (UniProt Q9GZR7)
inactive: [2] -0.211 | [3] -0.34 | [4] 0.196 | [5] -0.076
